Assay results from PubChem BioAssay AID588346 (National Center for Advancing Translational Sciences (NCATS), 2011).
Inconclusive means that the source gave no clear call. Such entries were picked first, then a sample of the others. Where the call is inconclusive, the potency comes from a doubtful curve fit. Calls of active or inactive are those of the source. Calls follow the shape of the dose curve; as a rule, active = well fitted curve in the direction sought with a large enough effect; inconclusive = small, poorly fitted or top-dose-only effect, or another doubt; inactive = no such curve, though single readings can be large or run the other way.

Assay: qHTS Assay for Inhibitors of Histone Lysine Methyltransferase G9a: Hit Confirmation in b-rIgG Counterscreen
Settings: AlphaScreen b-rIgG bead counterscreen, signal interference; series mostly up to 55.7 µM
Excerpt: Methylated lysines, on the N-terminal tails of histone proteins serve as epigenetic markers to recruit factors that can then modify local chromatin structure to lead to functional consequences. G9a and other members of the SUV39 family of the SET domain-containing superfamily of histone lysine methyltransferases (HMT) have been identified to specifically methylate Lys9 of histone H3 (H3K9). G9a catalyzes the mono- and di-methylation of H3K9 in mammalian euchromatic regions, where the resulting H3K9me2 is indicative of transcriptional repression. […] The inhibition of G9a will result in transcriptional activation and work synergistically with DNA methyltransferase and histone deacetylase inhibitors, to kill cancer cells. This qHTS assay for identification of G9a inhibitors is a chemiluminescence based AlphaScreen (PerkinElmer). Methylation of biotinylated-histone peptide is measured through specific antibody-based detection, in conjunction with streptavidin-coated donor and anti-IgG antibody-coated acceptor beads. The method is particularly well suited for detection of inhibitors acting by the desired histone peptide competitive mechanism and is applicable to testing other HMTs. Although AlphaScreen has significant advantages with its utility in a variety of epigenetic target assays, the primary screening data provided in this deposition should be used with caution due to the prevalence of screening artifacts. Because an AlphaScreen counterscreen is highly recommended to be run against any putative actives to eliminate non specific artifacts, this assay was used as a counterscreen. Quinn et al. A chemiluminescence-based method for identification of histone lysine methyltransferase inhibitors. Mol Biosyst 6(5): 782-8. 2010. PMID: 20567762 [2] Baell,Holloway. New substructure filters for removal of pan assay interference compounds (PAINS) from screening libraries and for their exclusion in bioassays. J Med Chem. 53(7):2719-40. 2010. PMID: 20131845 NIH Chemical Genomics Center [NCGC] NIH Molecular Libraries Probe Production Network [MLPCN] MLPCN Grant: MH084681-02 Assay Submitter (PI): Structural Genomic Consortium - Toronto, Peter Brown
Biotinylated rabbit-IgG (b-rIgG) (Santa Cruz Biotechnology, Inc., Santa Cruz, CA) was added to 1,536-well plates in a 3 uL dispense. Compounds were added in a 23 nL pin-transfer step, and plates were incubated at room temperature for 15 min. Streptavidin-coated donor and anti-rIgG acceptor AlphaScreen beads were added (1 uL) for final concentrations of 20 ug/mL each bead and 1 nM b-rIgG, and plates read on the Envision after a 15 min incubation at room temperature in the dark.

Structure (SMILES) | Potency
COc1ccccc1N1CCN(CCN2C(=O)CC3(CCCC3)CC2=O)CC1 | inactive
COc1cc2nc(N3CCCN(C)CC3)nc(N(C)C)c2cc1OC | inconclusive: 72.5 µM [inhibitor, partial curve, poor fit]
CN(C)CCCN1c2ccccc2Sc2ccc(C(F)(F)F)cc21 | inconclusive: 35.5 µM [inhibitor, partial curve]
CCCC(=O)N1CCN(c2ccc(NC(=O)c3ccc([N+](=O)[O-])o3)cc2Cl)CC1 | inactive
COc1cc2nc(NC3CCN(C)CC3)nc(NC3CCN(C)CC3)c2cc1OC | inconclusive: 28.9 µM [inhibitor, partial curve, poor fit]
COCCCCOc1cc2nc(N3CCCN(C)CC3)nc(NC3CCN(C)CC3)c2cc1OC | inconclusive: 64.6 µM [inhibitor, partial curve, poor fit]
CC1=C/C(=N\NC(=S)Nc2cccnc2)CC(C)(C)C1 | inconclusive: 0.0355 µM [inhibitor, partial curve]
COc1cc2c(NC3CCN(C)CC3)nc(N3CCCN(C)CC3)nc2cc1OCCCCCC(N)=O | inconclusive: 0.0051 µM [inhibitor, full curve, poor fit]
COc1ccc(NC(=O)c2ccc(-c3ccc(-c4noc(C)n4)cc3C)cc2)cc1N1CCN(C)CC1 | active: 28.2 µM
COc1cccc(/C=N/Nc2nc(Nc3ccccc3)nc(-n3nc(C)cc3C)n2)c1O | inconclusive: 31.6 µM [inhibitor, partial curve]
COc1cc2c(NC3CCN(C)CC3)nc(N3CCCN(C)CC3)nc2cc1O | inconclusive: 102 µM [inhibitor, partial curve, poor fit]
Oc1c(N=Nc2ccccn2)ccc2ccccc12 | active: 11.2 µM
O=[N+]([O-])/C(C=Nc1ccccc1O)=C\Nc1ccccc1O | inconclusive: 31.6 µM [inhibitor, partial curve]
COc1cc2nc(N3CCCN(C)CC3)nc(N)c2cc1OC | inconclusive: 0.0145 µM [inhibitor, full curve, poor fit]
N[C@@H](Cc1c[nH]c2ccc(O)cc12)C(=O)O | inconclusive: 44.7 µM [inhibitor, single point]
COc1cc2nc(NC3CCN(Cc4ccccc4)CC3)nc(N3CCCN(C)CC3)c2cc1OC | inconclusive: 16.2 µM [inhibitor, partial curve, poor fit]
COc1cc2nc(N3CCCN(C)CC3)nc(N3CCN(C)CC3)c2cc1OC | inconclusive: 45.7 µM [inhibitor, partial curve, poor fit]
Cc1ccc(/C=N/NC(=S)Nc2cccc(S(=O)(=O)N(C)C)c2)o1 | inconclusive: 28.2 µM [inhibitor, partial curve]
CC(CN1c2ccccc2Sc2ccccc21)N(C)C (stereo not given) | inconclusive: 31.6 µM [inhibitor, partial curve]

By substructure, the entries above with sulfur (4)
Structure (SMILES) | Potency
CN(C)CCCN1c2ccccc2Sc2ccc(C(F)(F)F)cc21 | inconclusive: 35.5 µM [inhibitor, partial curve]
CC1=C/C(=N\NC(=S)Nc2cccnc2)CC(C)(C)C1 | inconclusive: 0.0355 µM [inhibitor, partial curve]
Cc1ccc(/C=N/NC(=S)Nc2cccc(S(=O)(=O)N(C)C)c2)o1 | inconclusive: 28.2 µM [inhibitor, partial curve]
CC(CN1c2ccccc2Sc2ccccc21)N(C)C (stereo not given) | inconclusive: 31.6 µM [inhibitor, partial curve]

The list continues:

Structure (SMILES) | Potency
COc1ccc2c(C)nc(Nc3nc(-c4ccccc4)cc(=O)[nH]3)nc2c1 | inactive
CSc1nsc(/C=C/Nc2cccc(Cl)c2)c1C#N | inactive
CN(C)CCCN1c2ccccc2Sc2ccccc21 | inconclusive: 31.6 µM [inhibitor, partial curve]
COc1cc2c(NC3CCN(C)CC3)nc(N3CCCN(C)CC3)nc2cc1OCCCCC(N)=O | inconclusive: 57.6 µM [inhibitor, partial curve, poor fit]
O=C1CN(c2nc(-c3ccccc3)c3cc(Cl)ccc3n2)c2ccccc2N1 | inactive
CN(C)CCCN1c2ccccc2Sc2ccc(Cl)cc21 | inconclusive: 25.1 µM [inhibitor, partial curve]
CCNc1nc(N2CCCN(C)CC2)nc2cc(OC)c(OC)cc12 | inconclusive: 57.6 µM [inhibitor, single point]
CN1CCN2c3ccccc3Cc3ccccc3C2C1 (stereo not given) | inconclusive: 35.5 µM [inhibitor, partial curve]
N=c1n(CC(=O)c2ccc([N+](=O)[O-])cc2)c2ccccc2n1Cc1ccccc1Cl | inactive
CN(c1ccccc1)S(=O)(=O)c1nnc(NC(=O)c2ccccc2)s1 | inactive
CCOc1ccc(NC(=O)c2nc(S(=O)(=O)Cc3ccccc3F)ncc2Cl)cc1 | inconclusive: 28.2 µM [inhibitor, partial curve]
CNc1nc(N2CCCN(C)CC2)nc2cc(OC)c(OC)cc12 | inactive
CCOn1c(=O)c[n+]([O-])c2ccccc21 | inactive
COc1ccccc1OCC(=O)N/N=C/C=C/c1ccc([N+](=O)[O-])o1 | inconclusive: 3.98 µM [inhibitor, full curve, poor fit]
Nc1nc2ccc(Cl)cc2c2nc(-c3ccco3)nn12 | inactive
NC(=S)N/N=C/c1ncc(C(F)(F)F)cc1Cl | inactive
Oc1ccc(-c2nc(-c3ccc(F)cc3)c(-c3ccncc3)[nH]2)cc1 | inconclusive: 20 µM [inhibitor, partial curve]
CC(C)COCC(CN(Cc1ccccc1)c1ccccc1)N1CCCC1 (stereo not given) | inconclusive: 31.6 µM [inhibitor, partial curve]
Cc1ccc(C(C)C)c(OCc2ccc(C(=O)N/N=C/c3cccc(O)c3O)cc2)c1 | inactive
Oc1cc2c(cc1O)CN(C(=S)NCCc1ccc(Cl)cc1)CCC2 | inconclusive: 25.1 µM [inhibitor, partial curve]
